Measurements published in the supplement of paper PMC10849652.
This is one part of the list.

Protein sequences, listed by entry. Tags and fused reporters are not part of them. Lines headed by an entry give the natural chain unless they say otherwise; changes in a name come on top.
UniProt P05141: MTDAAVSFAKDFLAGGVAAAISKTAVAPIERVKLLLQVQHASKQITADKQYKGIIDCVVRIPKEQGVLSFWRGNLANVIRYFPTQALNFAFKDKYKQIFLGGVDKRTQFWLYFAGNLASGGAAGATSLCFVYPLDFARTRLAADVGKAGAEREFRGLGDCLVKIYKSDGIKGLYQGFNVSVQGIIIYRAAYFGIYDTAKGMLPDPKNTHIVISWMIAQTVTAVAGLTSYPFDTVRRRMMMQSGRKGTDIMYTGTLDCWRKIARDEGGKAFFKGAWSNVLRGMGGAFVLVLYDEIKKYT
UniProt O95391: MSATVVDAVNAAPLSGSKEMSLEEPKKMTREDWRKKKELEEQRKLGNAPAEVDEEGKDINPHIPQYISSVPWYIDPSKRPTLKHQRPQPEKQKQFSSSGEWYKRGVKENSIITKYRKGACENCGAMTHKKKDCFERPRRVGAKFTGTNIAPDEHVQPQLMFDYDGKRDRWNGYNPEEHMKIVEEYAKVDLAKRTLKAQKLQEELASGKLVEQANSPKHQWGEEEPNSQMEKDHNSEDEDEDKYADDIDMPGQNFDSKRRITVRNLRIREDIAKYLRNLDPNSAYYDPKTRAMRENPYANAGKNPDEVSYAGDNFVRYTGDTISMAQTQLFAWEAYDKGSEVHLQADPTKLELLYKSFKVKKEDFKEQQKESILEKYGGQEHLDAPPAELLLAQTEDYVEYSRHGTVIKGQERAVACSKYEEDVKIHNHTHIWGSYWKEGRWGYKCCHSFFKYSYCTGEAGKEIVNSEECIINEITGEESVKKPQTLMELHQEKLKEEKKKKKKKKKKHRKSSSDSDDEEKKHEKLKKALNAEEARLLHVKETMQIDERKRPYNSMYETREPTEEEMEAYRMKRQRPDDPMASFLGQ
UniProt P19634, whole entry, looked up: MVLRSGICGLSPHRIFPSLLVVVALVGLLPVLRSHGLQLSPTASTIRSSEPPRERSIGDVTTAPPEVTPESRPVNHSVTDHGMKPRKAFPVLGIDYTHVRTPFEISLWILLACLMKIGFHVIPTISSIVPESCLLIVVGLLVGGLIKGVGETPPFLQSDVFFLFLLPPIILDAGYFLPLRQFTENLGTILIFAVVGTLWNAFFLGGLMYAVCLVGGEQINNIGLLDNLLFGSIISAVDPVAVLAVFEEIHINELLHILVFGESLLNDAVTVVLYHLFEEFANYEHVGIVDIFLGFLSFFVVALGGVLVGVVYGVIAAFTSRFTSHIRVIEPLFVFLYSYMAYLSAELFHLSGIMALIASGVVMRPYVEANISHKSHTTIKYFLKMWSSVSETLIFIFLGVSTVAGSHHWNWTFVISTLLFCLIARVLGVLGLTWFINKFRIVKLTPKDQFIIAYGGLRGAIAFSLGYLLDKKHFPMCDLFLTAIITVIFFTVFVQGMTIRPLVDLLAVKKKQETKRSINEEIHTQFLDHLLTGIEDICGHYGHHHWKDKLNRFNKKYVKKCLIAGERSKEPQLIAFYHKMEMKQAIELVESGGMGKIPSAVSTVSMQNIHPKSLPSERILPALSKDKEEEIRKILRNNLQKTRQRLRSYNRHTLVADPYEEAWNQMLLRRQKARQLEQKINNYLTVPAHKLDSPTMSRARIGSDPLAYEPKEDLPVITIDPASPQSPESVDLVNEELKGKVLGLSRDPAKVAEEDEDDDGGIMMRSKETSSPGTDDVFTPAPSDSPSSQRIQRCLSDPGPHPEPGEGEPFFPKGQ
UniProt P53007, whole entry, looked up: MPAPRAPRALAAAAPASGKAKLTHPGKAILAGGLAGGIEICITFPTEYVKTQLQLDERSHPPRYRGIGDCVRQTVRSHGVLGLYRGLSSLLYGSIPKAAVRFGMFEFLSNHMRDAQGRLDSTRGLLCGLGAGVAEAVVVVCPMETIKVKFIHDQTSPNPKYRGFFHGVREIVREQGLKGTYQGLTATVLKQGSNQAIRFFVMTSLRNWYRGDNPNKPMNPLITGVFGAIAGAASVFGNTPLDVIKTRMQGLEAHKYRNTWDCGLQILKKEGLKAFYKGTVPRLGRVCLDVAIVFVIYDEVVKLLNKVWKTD
UniProt O43772: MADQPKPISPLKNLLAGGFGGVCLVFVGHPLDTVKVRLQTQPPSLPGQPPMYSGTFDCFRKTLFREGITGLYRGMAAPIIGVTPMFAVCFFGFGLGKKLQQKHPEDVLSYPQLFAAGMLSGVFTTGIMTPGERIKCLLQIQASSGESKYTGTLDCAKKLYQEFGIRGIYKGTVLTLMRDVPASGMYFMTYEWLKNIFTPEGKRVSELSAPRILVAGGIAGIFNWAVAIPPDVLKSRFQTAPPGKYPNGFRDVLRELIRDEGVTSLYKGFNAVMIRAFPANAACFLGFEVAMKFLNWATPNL
UniProt O14745: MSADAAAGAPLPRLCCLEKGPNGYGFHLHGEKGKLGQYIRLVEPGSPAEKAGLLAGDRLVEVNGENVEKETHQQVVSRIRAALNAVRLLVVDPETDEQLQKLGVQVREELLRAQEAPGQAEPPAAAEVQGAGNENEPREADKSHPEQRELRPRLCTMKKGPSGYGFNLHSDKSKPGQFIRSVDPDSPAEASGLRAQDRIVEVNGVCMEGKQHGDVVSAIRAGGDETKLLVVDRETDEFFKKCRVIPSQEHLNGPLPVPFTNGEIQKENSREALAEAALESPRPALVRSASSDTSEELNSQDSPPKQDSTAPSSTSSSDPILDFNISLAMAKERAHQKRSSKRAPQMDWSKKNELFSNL
UniProt Q8WU79: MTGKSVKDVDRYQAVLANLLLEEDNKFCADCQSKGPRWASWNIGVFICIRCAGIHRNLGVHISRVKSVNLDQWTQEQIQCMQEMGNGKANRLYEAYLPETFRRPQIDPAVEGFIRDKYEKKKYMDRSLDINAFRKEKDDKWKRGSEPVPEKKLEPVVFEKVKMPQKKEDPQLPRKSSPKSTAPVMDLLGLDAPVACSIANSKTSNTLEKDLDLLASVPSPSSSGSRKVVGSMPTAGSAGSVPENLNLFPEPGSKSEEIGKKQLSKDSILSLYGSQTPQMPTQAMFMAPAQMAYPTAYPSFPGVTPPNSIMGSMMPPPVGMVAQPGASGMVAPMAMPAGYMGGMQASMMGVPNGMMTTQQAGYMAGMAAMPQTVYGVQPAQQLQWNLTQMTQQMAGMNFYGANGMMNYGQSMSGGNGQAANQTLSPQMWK
UniProt Q9H0C2: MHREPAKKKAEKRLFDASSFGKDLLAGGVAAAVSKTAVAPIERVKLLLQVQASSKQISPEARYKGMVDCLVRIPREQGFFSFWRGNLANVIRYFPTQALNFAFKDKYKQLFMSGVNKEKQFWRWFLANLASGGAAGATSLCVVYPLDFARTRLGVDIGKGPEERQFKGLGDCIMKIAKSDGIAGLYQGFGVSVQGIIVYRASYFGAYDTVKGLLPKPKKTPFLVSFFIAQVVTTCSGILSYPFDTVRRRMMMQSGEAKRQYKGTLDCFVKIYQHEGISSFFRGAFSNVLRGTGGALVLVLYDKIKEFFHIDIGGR
UniProt Q6KCM7: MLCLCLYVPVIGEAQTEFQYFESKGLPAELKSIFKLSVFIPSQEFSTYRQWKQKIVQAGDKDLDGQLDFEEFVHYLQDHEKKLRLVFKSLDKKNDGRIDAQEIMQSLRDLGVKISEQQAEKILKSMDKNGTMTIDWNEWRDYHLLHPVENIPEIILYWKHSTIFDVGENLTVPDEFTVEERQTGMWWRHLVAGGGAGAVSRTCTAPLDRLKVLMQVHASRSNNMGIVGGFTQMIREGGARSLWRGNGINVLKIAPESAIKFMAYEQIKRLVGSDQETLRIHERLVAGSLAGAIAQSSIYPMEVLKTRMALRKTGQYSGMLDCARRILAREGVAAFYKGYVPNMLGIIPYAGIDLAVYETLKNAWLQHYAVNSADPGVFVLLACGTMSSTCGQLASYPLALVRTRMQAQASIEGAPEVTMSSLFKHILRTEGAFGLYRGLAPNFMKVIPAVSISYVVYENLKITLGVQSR
UniProt P50443: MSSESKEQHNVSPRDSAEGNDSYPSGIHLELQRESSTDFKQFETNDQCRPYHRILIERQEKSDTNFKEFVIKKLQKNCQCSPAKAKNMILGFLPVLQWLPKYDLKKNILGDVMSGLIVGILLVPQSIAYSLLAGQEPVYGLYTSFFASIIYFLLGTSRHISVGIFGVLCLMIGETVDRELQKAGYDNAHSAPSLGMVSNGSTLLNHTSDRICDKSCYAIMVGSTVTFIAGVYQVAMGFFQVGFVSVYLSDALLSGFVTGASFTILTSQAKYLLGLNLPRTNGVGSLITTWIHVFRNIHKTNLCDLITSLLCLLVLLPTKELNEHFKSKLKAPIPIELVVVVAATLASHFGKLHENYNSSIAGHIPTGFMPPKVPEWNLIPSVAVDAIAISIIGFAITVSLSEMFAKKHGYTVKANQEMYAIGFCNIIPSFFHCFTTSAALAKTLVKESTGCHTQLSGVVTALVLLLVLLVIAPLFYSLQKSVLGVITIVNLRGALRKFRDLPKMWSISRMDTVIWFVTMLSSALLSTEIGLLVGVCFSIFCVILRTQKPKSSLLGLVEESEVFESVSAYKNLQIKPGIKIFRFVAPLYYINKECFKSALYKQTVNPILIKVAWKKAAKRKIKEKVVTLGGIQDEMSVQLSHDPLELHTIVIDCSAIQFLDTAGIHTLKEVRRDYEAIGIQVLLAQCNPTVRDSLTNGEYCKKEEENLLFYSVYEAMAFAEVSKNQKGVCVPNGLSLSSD
UniProt O43826: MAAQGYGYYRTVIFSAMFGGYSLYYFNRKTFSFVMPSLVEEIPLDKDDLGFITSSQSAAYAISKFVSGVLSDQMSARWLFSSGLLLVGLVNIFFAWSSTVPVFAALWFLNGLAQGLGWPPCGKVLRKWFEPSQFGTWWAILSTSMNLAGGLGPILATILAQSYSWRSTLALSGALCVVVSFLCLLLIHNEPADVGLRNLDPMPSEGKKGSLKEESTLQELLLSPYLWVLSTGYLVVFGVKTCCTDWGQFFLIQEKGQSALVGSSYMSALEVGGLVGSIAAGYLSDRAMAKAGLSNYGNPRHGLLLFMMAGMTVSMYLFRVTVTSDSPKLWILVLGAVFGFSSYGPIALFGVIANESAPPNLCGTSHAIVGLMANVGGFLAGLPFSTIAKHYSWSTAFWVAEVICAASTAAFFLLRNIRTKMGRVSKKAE
UniProt L0R6Q1: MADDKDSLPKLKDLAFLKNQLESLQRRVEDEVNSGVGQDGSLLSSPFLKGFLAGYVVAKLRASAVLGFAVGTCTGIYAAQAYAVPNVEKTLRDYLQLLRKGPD
UniProt O14975, whole entry, looked up: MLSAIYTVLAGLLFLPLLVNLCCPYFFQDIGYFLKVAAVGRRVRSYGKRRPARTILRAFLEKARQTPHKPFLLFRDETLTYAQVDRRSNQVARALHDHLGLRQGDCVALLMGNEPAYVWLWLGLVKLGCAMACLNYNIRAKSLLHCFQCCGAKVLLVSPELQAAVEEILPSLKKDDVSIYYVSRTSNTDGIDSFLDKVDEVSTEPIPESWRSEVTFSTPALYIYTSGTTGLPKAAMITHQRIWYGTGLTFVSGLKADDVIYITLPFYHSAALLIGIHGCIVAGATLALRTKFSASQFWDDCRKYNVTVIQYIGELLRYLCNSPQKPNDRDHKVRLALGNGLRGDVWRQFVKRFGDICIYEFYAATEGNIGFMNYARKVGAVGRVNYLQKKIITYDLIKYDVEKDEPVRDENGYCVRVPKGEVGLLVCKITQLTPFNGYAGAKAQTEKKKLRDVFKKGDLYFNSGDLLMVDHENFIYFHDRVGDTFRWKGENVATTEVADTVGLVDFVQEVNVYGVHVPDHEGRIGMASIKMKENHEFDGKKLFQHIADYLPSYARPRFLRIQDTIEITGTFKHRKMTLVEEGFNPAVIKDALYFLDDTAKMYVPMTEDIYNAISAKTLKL
UniProt Q8TAD4: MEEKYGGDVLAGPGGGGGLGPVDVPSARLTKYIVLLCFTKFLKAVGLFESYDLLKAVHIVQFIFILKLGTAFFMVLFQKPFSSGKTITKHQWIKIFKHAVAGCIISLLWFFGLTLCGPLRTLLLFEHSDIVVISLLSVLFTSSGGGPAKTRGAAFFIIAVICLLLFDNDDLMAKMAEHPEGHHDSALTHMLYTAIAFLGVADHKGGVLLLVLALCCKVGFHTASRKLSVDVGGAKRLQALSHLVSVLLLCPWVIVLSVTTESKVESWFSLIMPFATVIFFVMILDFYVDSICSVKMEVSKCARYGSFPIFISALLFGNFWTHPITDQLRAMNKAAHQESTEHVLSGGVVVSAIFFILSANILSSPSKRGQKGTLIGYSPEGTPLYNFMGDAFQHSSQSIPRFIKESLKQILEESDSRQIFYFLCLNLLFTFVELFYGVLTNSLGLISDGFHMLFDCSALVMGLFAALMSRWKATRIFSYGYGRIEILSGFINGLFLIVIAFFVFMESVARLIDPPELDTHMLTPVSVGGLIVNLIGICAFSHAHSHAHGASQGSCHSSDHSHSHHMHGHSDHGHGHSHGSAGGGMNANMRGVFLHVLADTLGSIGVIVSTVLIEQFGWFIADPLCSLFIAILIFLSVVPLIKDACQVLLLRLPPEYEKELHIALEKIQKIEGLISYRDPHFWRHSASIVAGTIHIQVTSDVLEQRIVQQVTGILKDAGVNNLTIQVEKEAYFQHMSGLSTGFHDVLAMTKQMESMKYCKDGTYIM

Columns and labels:
Experiment in all cases: log2 fold change, soluble protein after heating vs DMSO (PISA); higher = thermal stabilisation; K562 lysate, 10 uM; active = over 0.2 and 3.5 SD of the protein, either way, in both replicates (recomputed)
[1] = compound: C1=CC=C(C=C1)[C@H](COC2=CC3=C(C=C2)NC(=O)N3)NC(=O)C4=CC=CN(C4=O)CC5=CC(=C(C=C5)F)F
How it was run: (§1)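 Values give the log-two fold change in thermal stability against solvent controls, from duplicates. Crude K562 extract at 1 mg/mL protein, made by dounce homogenisation in PBS pH 7.4 with 1 mM MgCl2, was treated with 10 μM compound for 30 min. After 3 min heating across 48°C-58°C, aliquots were pooled, adjusted to 0.5% NP-40 at 4°C and centrifuged at 21,000xg for 90 min. The supernatant was measured by TMTpro 16plex LC-MS/MS with channel sums equalised.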

[2] = compound: CC1=C(SC2=C1C(=N[C@H](C3=NN=C(N32)C)CC(=O)N)C4=CC=C(C=C4)Cl)C
How it was run: as §1

[3] = compound: CC1=C2C(=CC=C1)N=C(N(C2=O)C3=CC=CC=C3C)CN4C=NC5=C(N=CN=C54)N
How it was run: as §1

[4] = compound: Cc1sc2c(c1C)C(c1ccc(Cl)cc1)=N[C@@H](CC(=O)OC(C)(C)C)c1nnc(C)n1-2
How it was run: as §1

[5] = compound: c1ccc([C@@H]2C[C@H]2NC2CCNCC2)cc1
How it was run: as §1

Measured: log2 fold change

SLC38A2 (UniProt Q96QD8)
inactive: [1] 0.014 | [2] -0.067 | [3] -0.019 | [4] 0.009 | [5] -0.062

SLC25A5 (UniProt P05141)
inactive: [1] -0.033 | [2] -0.003 | [3] -0.019 | [4] 0.062 | [5] 0.11

SLC30A10 (UniProt Q6XR72)
inactive: [1] 0.125 | [2] 0.039 | [3] 0.088 | [4] 0.071 | [5] 0.067

SLC7A2 isoform 3 (UniProt P52569)
inactive: [1] -0.024 | [2] 0 | [3] -0.162 | [4] -0.224 | [5] 0.036

SLC31A1 (UniProt O15431)
inactive: [1] 0.011 | [2] 0.024 | [3] -0.048 | [4] 0.069 | [5] 0.06

SLC7A1 (UniProt P30825)
inactive: [1] 0.018 | [2] -0.041 | [3] 0 | [4] 0.03 | [5] -0.012

SLC25A38 (UniProt Q96DW6)
inactive: [1] 0.099 | [2] 0 | [3] 0.013 | [4] -0.323 | [5] -0.047

SLC30A9 (UniProt Q6PML9)
inactive: [1] -0.013 | [2] -0.045 | [3] 0.003 | [4] -0.013 | [5] -0.105

SLC7A11 (UniProt Q9UPY5)
inactive: [1] 0.034 | [2] 0.048 | [3] 0.042 | [4] -0.056 | [5] -0.029

SLU7 (UniProt O95391)
inactive: [1] -0.015 | [2] 0.041 | [3] 0.045 | [4] -0.028 | [5] -0.16

SLC30A7 (UniProt Q8NEW0)
inactive: [1] -0.076 | [2] 0.14 | [3] 0.007 | [4] -0.222 | [5] -0.031

SLC9A1 (UniProt P19634)
inactive: [1] -0.017 | [2] 0.043 | [3] -0.038 | [4] -0.083 | [5] -0.013

SLC25A1 (UniProt P53007)
inactive: [1] 0 | [2] 0.06 | [3] -0.015 | [4] 0.001 | [5] 0.054

SLC25A20 (UniProt O43772)
inactive: [1] 0.023 | [2] 0.008 | [3] 0.047 | [4] -0.005 | [5] -0.014

SLC9A3R1 (UniProt O14745)
inactive: [1] 0.015 | [2] 0.013 | [3] 0.002 | [4] 0.003 | [5] -0.012

SLC35B3 (UniProt Q9H1N7)
inactive: [1] 0.01 | [2] -0.024 | [3] -0.046 | [4] -0.166 | [5] 0.022

SMAP2 (UniProt Q8WU79)
inactive: [1] 0.02 | [2] -0.002 | [3] 0.029 | [4] 0.049 | [5] 0.02

SLC25A31 (UniProt Q9H0C2)
inactive: [1] 0.01 | [2] 0.026 | [3] -0.074 | [4] -0.003 | [5] 0.015

SLC25A25 isoform 3 (UniProt Q6KCM7)
inactive: [1] 0.064 | [2] -0.027 | [3] 0.013 | [4] 0.034 | [5] 0.023

SLC6A8 isoform 2 (UniProt P48029)
inactive: [1] 0.112 | [2] -0.036 | [3] 0 | [4] -0.22 | [5] 0.038

SLC30A1 (UniProt Q9Y6M5)
inactive: [1] 0.07 | [2] -0.001 | [3] 0.022 | [4] -0.02 | [5] -0.019

SLC26A2 (UniProt P50443)
inactive: [1] -0.192 | [2] 0.164 | [3] 0 | [4] -0.077 | [5] 0.174

SLC37A4 isoform 2 (UniProt O43826)
inactive: [1] 0.071 | [2] -0.008 | [3] 0.002 | [4] -0.082 | [5] -0.12

SLC35A4 (UniProt L0R6Q1)
inactive: [1] -0.042 | [2] -0.01 | [3] 0.063 | [4] -0.049 | [5] -0.084

SLC27A2 (UniProt O14975)
inactive: [1] 0.198 | [2] -0.064 | [3] -0.043 | [4] -0.063 | [5] -0.05

SLC30A5 (UniProt Q8TAD4)
inactive: [1] -0.001 | [2] 0.036 | [3] -0.019 | [4] -0.026 | [5] -0.153

2 records picked at random from those above:
SLC30A9 (UniProt Q6PML9)
inactive: [1] -0.013 | [2] -0.045 | [3] 0.003 | [4] -0.013 | [5] -0.105

SLC30A5 (UniProt Q8TAD4)
inactive: [1] -0.001 | [2] 0.036 | [3] -0.019 | [4] -0.026 | [5] -0.153

Remaining list, next part.

SLC29A1 isoform 2 (UniProt Q99808)
inactive: [1] 0.068 | [2] -0.06 | [3] 0 | [4] -0.011 | [5] -0.164
